This note sets out measurements from patent US20110306105A1 (University of California, published 2011).

These are yes or no findings as the source states them, for the method shown. Some results given as binding are weak or reduced against the parent protein; the word gives no strength.

In this test the target is scaffoldin Scaf-ct displayed on the yeast cell surface (chimeric: C. cellulolyticum, C. thermocellum). Kind of test: immunofluorescence microscopy with anti-His6, yeast displaying Scaf-ct.

For the substance “endoglucanase CelA fused with a dockerin domain from C. thermocellum (At), His6-tagged, from E. coli (from UniProt A3DC29 33-477) (enzyme)”, the binding result is reported as “binds”.
